Assay results from patent publication US20200222474A1, “COMPOSITIONS AND METHODS FOR INCREASING PHYTOCHEMICAL BIOAVAILABLITY AND BIOACTIVITY” (North Carolina State University, priority 2017, published 2020).
Further values from the same series stand in other lists.

Test system: L. acidophilus NCFM
Test: RNA-seq transcriptional analysis of L. acidophilus NCFM growing on plant glycosides
Type: cell-based, Lactobacillus acidophilus
[1] = LBA0160 Anaerobic ribonucleoside triphosphate reductase, COG F
[2] = LBA0197 Oligopeptide binding protein, COG E
[3] = LBA0198 Peptide binding protein, COG E
[4] = LBA0225 6-p-beta-glucosidase, COG G
[5] = LBA0227 Celiohiose-specific PTS IIC, COG G
[6] = LBA0228 Transcriptional regulator, COG G
[7] = LBA0455 Mannose-specific PTS system component IIC, COG G
[8] = LBA0456 Mannose-specific PTS system component IID, COG G
[9] = LBA0491 Cellobiose-specific PTS IIC, COG G
[10] = LBA0503 ABC transporter permease, COG G
[11] = LBA0606 PTS system arbutin-like IIBC component, COG G
[12] = LBA0609 PTS enzyme II ABC component, COG G
[13] = LBA0680 Glycogen branching enzyme, COG G
[14] = LBA0681 Glucose-1-phosphate adenylyltransferase, COG G
[15] = LBA0682 Glucose-1-phosphate adenylyltransferase, COG G
[16] = LBA0683 Glycogen synthase, COG G
[17] = LBA0685 Glycogen phosphorylase, COG G
[18] = LBA0686 Amylopullulanase, COG G
[19] = LBA0687 Phosphoglucomutase, COG G
[20] = LBA0724 Transcription antiterminator, COG G
[21] = LBA0726 Phospho-beta-galactosidase II, COG G
[22] = LBA0874 Phospho-beta-galactosidase I, COG G
[23] = LBA0875 Transcriptional regulator, COG G
[24] = LBA0876 Cellobiose-specific PTS IIC, COG G
[25] = LBA0877 Cellobiose-specific PTS IIA, COG G
[26] = LBA0986 Galactose mutarotase related ensyme, COG G
[27] = LBA1102 Transmembrane protein, COG G
[28] = LBA1400 Oligopeptide ABC transporter substrate binding protein, COG E
[29] = LBA1433 Dihydroxyacetone kinase, COG G

OC[C@H]1O[C@@H](O[C@H]2[C@H](O)[C@@H](O)[C@@H](O)O[C@@H]2CO)[C@H](O)[C@@H](O)[C@H]1O [Lac]
Log2 differential normalized TPM ratio compared to glucose (LBA0146 PTS system HA, COG G): 1.6 | Transcripts per million (rpm) (LBA0146 PTS system HA, COG G): 23.8 rpm | Log2 differential normalized TPM ratio compared to glucose [1]: 0.9 | Transcripts per million (rpm) [1]: 333.4 rpm | Log2 differential normalized TPM ratio compared to glucose [2]: −2.3 | Transcripts per million (rpm) [2]: 13.9 rpm | Log2 differential normalized TPM ratio compared to glucose [3]: −3 | Transcripts per million (rpm) [3]: 5.4 rpm | Log2 differential normalized TPM ratio compared to glucose [4]: −0.4 | Transcripts per million (rpm) [4]: 21.5 rpm | Log2 differential normalized TPM ratio compared to glucose [5]: 0.3 | Transcripts per million (rpm) [5]: 4.5 rpm | Log2 differential normalized TPM ratio compared to glucose [6]: 0.1 | Transcripts per million (rpm) [6]: 15.1 rpm | Log2 differential normalized TPM ratio compared to glucose [7]: 1 | Transcripts per million (rpm) [7]: 599.9 rpm | Log2 differential normalized TPM ratio compared to glucose [8]: 1 | Transcripts per million (rpm) [8]: 1025.4 rpm | Log2 differential normalized TPM ratio compared to glucose [9]: 2.1 | Transcripts per million (rpm) [9]: 31 rpm | Log2 differential normalized TPM ratio compared to glucose [10]: 1.2 | Transcripts per million (rpm) [10]: 7.3 rpm | Log2 differential normalized TPM ratio compared to glucose (LBA0505 Fructosidase, COG G): 0.9 | Transcripts per million (rpm) (LBA0505 Fructosidase, COG G): 6.9 rpm | Log2 differential normalized TPM ratio compared to glucose [11]: 2.2 | Transcripts per million (rpm) [11]: 20.6 rpm | Log2 differential normalized TPM ratio compared to glucose [12]: 1.6 | Transcripts per million (rpm) [12]: 153.8 rpm | Log2 differential normalized TPM ratio compared to glucose [13]: 1 | Transcripts per million (rpm) [13]: 131.9 rpm | Log2 differential normalized TPM ratio compared to glucose [14]: 1.8 | Transcripts per million (rpm) [14]: 147.4 rpm | Log2 differential normalized TPM ratio compared to glucose [15]: 1.8 | Transcripts per million (rpm) [15]: 175.4 rpm | Log2 differential normalized TPM ratio compared to glucose [16]: 1.9 | Transcripts per million (rpm) [16]: 224.9 rpm | Log2 differential normalized TPM ratio compared to glucose [17]: 1.8 | Transcripts per million (rpm) [17]: 225.7 rpm | Log2 differential normalized TPM ratio compared to glucose [18]: 1.8 | Transcripts per million (rpm) [18]: 228.8 rpm | Log2 differential normalized TPM ratio compared to glucose [19]: 1.7 | Transcripts per million (rpm) [19]: 409.4 rpm | Log2 differential normalized TPM ratio compared to glucose [20]: 1.8 | Transcripts per million (rpm) [20]: 105.4 rpm | Log2 differential normalized TPM ratio compared to glucose (LBA0725 PTS EII system, COG G): 2.7 | Transcripts per million (rpm) (LBA0725 PTS EII system, COG G): 12.1 rpm | Log2 differential normalized TPM ratio compared to glucose [21]: 2.7 | Transcripts per million (rpm) [21]: 133.6 rpm | Log2 differential normalized TPM ratio compared to glucose [22]: 1.1 | Transcripts per million (rpm) [22]: 32.5 rpm | Log2 differential normalized TPM ratio compared to glucose [23]: 0.4 | Transcripts per million (rpm) [23]: 16.3 rpm | Log2 differential normalized TPM ratio compared to glucose [24]: 2.9 | Transcripts per million (rpm) [24]: 742.4 rpm | Log2 differential normalized TPM ratio compared to glucose [25]: 3.1 | Transcripts per million (rpm) [25]: 514.3 rpm | Log2 differential normalized TPM ratio compared to glucose (LBA0911 Aminopeptidase, COG E): 1.1 | Transcripts per million (rpm) (LBA0911 Aminopeptidase, COG E): 369.7 rpm | Log2 differential normalized TPM ratio compared to glucose [26]: 0.6 | Transcripts per million (rpm) [26]: 140.8 rpm | Log2 differential normalized TPM ratio compared to glucose (LBA1022 Arginase, COG E): 0.2 | Transcripts per million (rpm) (LBA1022 Arginase, COG E): 291.6 rpm | Log2 differential normalized TPM ratio compared to glucose (LBA1055 Mutator protein, COG F): −0.3 | Transcripts per million (rpm) (LBA1055 Mutator protein, COG F): 12.1 rpm | Log2 differential normalized TPM ratio compared to glucose [27]: 1.3 | Transcripts per million (rpm) [27]: 90.5 rpm | Log2 differential normalized TPM ratio compared to glucose [28]: 1 | Transcripts per million (rpm) [28]: 22.4 rpm | Log2 differential normalized TPM ratio compared to glucose [29]: 2.6 | Transcripts per million (rpm) [29]: 35.4 rpm | Log2 differential normalized TPM ratio compared to glucose (LBA1434 Dihydroxyacetone kinase, COG G): 3.4
